Reference: the supplement of paper PMC6078165

Tested on: MDAMB468
Test: relative JC-1 red fluorescence (viability) vs pre-drug, coculture with fibroblast (fraction); higher = more viable cancer cells
Details: 10 µM
Method: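 JC-1 labelled TNBC cells cocultured 1:1 (1,500 cells each) with CellTrace Violet stained primary or stromal fibroblasts in 384-well plates in FluoroBrite medium, treated with one of 42 anticancer drugs at 0.1, 1, 10 or 100 uM. JC-1 red fluorescence (mitochondrial integrity in cancer cells only) was read by plate reader every 8 h for 72 h. Values are normalised to each well's pre-drug value. The stock of one drug was tenfold lower, so its dose labels may be too high.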

CCC1=C[C@@H]2CN(C1)Cc1c([nH]c3ccccc13)[C@@](C(=O)OC)(c1cc3c(cc1OC)N(C)[C@H]1[C@@](O)(C(=O)OC)[C@H](OC(C)=O)[C@]4(CC)C=CCN5CC[C@]31[C@@H]54)C2 [Vinorelbine]
relative JC-1 red fluorescence
Details | 8 h | 16 h | 24 h | 32 h | 40 h | 48 h | 56 h | 64 h | 72 h
coculture fibroblast: C12385 | 0.8945 ± 0.0033 | 0.8868 ± 0.0027 | 0.8816 ± 0.004 | 0.83947 ± 0.00039 | 0.81108 ± 0.00052 | 0.804 ± 0.016 | 0.7738 ± 0.0023 | 0.745 ± 0.0092 | 0.726 ± 0.015
coculture fibroblast: H6013 | 0.847 ± 0.025 | 0.872 ± 0.0025 | 0.841 ± 0.0086 | 0.8405 ± 0.0024 | 0.81 ± 0.013 | 0.8263 ± 0.0054 | 0.802 ± 0.016 | 0.792 ± 0.013 | 0.783 ± 0.01
coculture fibroblast: H6019 | 0.856 ± 0.021 | 0.852 ± 0.034 | 0.851 ± 0.047 | 0.815 ± 0.052 | 0.792 ± 0.044 | 0.783 ± 0.044 | 0.76 ± 0.035 | 0.736 ± 0.043 | 0.725 ± 0.035
coculture fibroblast: H6076 | 0.917 ± 0.017 | 0.829 ± 0.11 | 0.98 ± 0.014 | 0.966 ± 0.025 | 0.904 ± 0.03 | 0.901 ± 0.042 | 0.856 ± 0.044 | 0.831 ± 0.056 | 0.832 ± 0.053
coculture fibroblast: H6231 | 0.808 ± 0.0079 | 0.929 ± 0.093 | 0.969 ± 0.025 | 0.9548 ± 0.0052 | 0.9486 ± 0.0033 | 0.941 ± 0.012 | 0.904 ± 0.013 | 0.899 ± 0.027 | 0.885 ± 0.019
coculture fibroblast: HADF | 0.872 ± 0.011 | 0.884 ± 0.031 | 0.86 ± 0.02 | 0.882 ± 0.014 | 0.836 ± 0.023 | 0.835 ± 0.018 | 0.813 ± 0.029 | 0.807 ± 0.04 | 0.798 ± 0.037
coculture fibroblast: HCFa | 0.866 ± 0.02 | 0.9 ± 0.042 | 0.876 ± 0.059 | 0.894 ± 0.072 | 0.861 ± 0.088 | 0.892 ± 0.11 | 0.856 ± 0.11 | 0.83 ± 0.12 | 0.819 ± 0.12
coculture fibroblast: HCPF | 0.87 ± 0.015 | 0.897 ± 0.091 | 0.939 ± 0.012 | 0.894 ± 0.048 | 0.936 ± 0.059 | 0.926 ± 0.056 | 0.86 ± 0.061 | 0.84 ± 0.03 | 0.809 ± 0.03
coculture fibroblast: HHSteC | 0.8764 ± 0.0072 | 0.9011 ± 0.0014 | 0.881 ± 0.011 | 0.875 ± 0.0095 | 0.839 ± 0.021 | 0.855 ± 0.0047 | 0.80617 ± 0.00069 | 0.8012 ± 0.007 | 0.769 ± 0.024
coculture fibroblast: HMF | 0.86957 ± 0.00075 | 0.852 ± 0.11 | 0.839 ± 0.12 | 0.761 ± 0.093 | 0.902 ± 0.028 | 0.779 ± 0.016 | 0.962 ± 0.046 | 0.935 ± 0.063 | 0.897 ± 0.091
coculture fibroblast: HPFa | 0.892 ± 0.02 | 0.893 ± 0.027 | 0.868 ± 0.05 | 0.843 ± 0.061 | 0.817 ± 0.058 | 0.832 ± 0.072 | 0.79 ± 0.068 | 0.782 ± 0.056 | 0.737 ± 0.061
coculture fibroblast: HUF | 0.936 ± 0.017 | 0.911 ± 0.018 | 0.88 ± 0.012 | 0.844 ± 0.021 | 0.799 ± 0.018 | 0.804 ± 0.013 | 0.783 ± 0.03 | 0.751 ± 0.029 | 0.722 ± 0.034
coculture fibroblast: Hs5 | 0.883 ± 0.044 | 0.757 ± 0.04 | 0.846 ± 0.074 | 0.812 ± 0.13 | 0.972 ± 0.032 | 0.945 ± 0.049 | 0.912 ± 0.049 | 0.881 ± 0.046 | 0.895 ± 0.056
coculture fibroblast: Hs27A | 0.836 ± 0.0092 | 0.854 ± 0.022 | 0.804 ± 0.0081 | 0.827 ± 0.013 | 0.7687 ± 0.0024 | 0.7705 ± 0.0011 | 0.752 ± 0.019 | 0.741 ± 0.022 | 0.769 ± 0.017
coculture fibroblast: Hs343T | 0.917 ± 0.01 | 0.819 ± 0.041 | 0.737 ± 0.043 | 0.718 ± 0.025 | 0.854 ± 0.094 | 0.81 ± 0.14 | 0.915 ± 0.051 | 0.905 ± 0.056 | 0.868 ± 0.028
coculture fibroblast: WS1 | 0.895 ± 0.012 | 0.868 ± 0.021 | 0.858 ± 0.023 | 0.826 ± 0.031 | 0.792 ± 0.029 | 0.765 ± 0.03 | 0.745 ± 0.03 | 0.712 ± 0.037 | 0.707 ± 0.057

± gives the standard deviation of the averaged measurements. Values are relative to the signal before dosing, not to a vehicle control; the signal also falls without drug.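 Fibroblast labels denote human fibroblasts, mainly primary ones from uterus (C12385, HUF), lung (H6013), bone (Hs27A), adrenal (HADF) and skin (WS1), plus mammary HMF and breast cancer-associated Hs343T. Cancer cells are basal-like or mesenchymal-like triple-negative breast cancer lines. A hit is a response shift exceeding 3x replicate standard deviation. The tissue of the other fibroblasts is not given here.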
